Measured values reported in the supplement of paper PMC12067093, “Discovery and optimisation of a covalent ligand for TRIM25 and its application to targeted protein ubiquitination” (Chemical Science, 2025).
This is one part of the list.

Sequences of proteins named here, by UniProt entry; tags and fusion partners are left off. A change or cut given only in a name is not applied to a line headed by its entry.
UniProt P07203, whole entry, looked up: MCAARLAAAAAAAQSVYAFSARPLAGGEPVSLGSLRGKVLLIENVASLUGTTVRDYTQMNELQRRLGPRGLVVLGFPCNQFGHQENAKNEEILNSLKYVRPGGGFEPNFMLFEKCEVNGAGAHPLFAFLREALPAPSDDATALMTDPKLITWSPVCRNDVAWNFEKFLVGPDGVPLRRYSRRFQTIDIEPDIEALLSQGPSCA
UniProt P21266: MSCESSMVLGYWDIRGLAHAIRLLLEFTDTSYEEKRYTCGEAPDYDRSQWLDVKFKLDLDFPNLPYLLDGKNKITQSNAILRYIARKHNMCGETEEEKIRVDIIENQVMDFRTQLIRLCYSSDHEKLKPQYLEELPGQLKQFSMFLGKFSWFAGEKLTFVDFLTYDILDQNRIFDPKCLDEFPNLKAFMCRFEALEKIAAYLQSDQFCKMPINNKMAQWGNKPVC
UniProt Q12789: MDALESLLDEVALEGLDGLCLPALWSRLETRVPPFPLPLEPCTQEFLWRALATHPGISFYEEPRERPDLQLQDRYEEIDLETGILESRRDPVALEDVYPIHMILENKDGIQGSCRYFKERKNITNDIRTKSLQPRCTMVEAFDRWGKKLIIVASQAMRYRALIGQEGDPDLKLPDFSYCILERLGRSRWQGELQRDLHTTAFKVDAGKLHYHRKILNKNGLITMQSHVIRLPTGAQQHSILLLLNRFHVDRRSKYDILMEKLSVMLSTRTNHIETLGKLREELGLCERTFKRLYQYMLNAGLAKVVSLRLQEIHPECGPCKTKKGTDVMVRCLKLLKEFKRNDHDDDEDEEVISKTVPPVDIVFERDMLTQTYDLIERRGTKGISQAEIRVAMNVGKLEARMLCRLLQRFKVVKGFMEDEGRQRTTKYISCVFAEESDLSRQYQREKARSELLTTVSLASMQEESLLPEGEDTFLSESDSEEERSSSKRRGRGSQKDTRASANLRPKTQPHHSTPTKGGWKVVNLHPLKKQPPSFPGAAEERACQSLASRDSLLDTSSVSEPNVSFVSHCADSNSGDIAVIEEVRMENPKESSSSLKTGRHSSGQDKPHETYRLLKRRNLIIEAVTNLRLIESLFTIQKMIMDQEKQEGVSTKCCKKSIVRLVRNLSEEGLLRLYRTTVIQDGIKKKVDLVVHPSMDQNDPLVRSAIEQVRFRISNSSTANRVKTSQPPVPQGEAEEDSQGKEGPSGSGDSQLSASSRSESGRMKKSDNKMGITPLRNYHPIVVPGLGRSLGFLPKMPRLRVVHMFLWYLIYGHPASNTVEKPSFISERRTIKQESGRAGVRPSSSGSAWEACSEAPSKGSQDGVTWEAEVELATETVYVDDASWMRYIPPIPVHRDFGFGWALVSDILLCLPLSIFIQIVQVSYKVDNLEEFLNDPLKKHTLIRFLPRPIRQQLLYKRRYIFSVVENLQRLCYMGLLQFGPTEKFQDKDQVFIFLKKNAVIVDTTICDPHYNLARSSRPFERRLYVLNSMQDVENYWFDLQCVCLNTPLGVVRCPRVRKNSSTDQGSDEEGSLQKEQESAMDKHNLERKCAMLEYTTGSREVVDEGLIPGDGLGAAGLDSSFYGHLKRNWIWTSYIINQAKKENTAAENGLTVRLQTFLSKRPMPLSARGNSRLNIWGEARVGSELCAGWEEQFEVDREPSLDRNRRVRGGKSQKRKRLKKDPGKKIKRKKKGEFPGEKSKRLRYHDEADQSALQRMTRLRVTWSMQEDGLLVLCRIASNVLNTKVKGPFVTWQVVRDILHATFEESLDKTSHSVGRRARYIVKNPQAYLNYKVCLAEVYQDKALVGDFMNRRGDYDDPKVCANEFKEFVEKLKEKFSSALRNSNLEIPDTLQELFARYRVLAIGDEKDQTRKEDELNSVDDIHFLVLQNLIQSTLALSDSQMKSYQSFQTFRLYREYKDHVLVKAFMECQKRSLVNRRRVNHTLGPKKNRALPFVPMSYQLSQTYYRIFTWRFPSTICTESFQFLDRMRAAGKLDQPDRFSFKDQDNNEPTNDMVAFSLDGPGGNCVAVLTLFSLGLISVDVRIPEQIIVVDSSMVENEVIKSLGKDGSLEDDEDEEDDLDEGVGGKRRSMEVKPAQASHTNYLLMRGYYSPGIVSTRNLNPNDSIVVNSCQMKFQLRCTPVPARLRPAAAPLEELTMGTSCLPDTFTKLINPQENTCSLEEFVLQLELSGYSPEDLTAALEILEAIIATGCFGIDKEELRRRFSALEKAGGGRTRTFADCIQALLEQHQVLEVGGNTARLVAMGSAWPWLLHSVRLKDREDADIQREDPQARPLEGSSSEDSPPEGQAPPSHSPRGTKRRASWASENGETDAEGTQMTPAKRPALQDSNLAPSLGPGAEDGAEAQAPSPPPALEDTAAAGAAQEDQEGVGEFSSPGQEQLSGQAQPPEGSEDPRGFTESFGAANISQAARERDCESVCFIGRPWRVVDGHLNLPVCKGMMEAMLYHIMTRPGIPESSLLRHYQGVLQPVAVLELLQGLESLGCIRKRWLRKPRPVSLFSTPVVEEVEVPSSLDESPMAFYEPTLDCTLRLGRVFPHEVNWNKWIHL
UniProt Q9UJ83: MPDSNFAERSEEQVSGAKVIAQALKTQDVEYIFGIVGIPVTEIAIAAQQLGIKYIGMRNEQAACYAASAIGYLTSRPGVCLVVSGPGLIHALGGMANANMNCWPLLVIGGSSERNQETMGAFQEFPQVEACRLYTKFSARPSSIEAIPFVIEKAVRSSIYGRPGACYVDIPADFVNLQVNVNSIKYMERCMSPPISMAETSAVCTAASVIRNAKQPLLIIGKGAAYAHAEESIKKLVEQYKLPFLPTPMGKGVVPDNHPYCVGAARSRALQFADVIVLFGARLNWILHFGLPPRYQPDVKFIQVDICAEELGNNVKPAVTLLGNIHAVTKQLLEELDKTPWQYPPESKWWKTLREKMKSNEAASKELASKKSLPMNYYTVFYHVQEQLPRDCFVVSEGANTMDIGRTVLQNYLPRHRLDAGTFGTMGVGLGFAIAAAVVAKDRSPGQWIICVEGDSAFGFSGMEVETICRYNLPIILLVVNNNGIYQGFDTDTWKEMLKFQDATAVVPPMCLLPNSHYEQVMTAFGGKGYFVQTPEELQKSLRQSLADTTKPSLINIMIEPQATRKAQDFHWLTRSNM
UniProt Q9UKN8: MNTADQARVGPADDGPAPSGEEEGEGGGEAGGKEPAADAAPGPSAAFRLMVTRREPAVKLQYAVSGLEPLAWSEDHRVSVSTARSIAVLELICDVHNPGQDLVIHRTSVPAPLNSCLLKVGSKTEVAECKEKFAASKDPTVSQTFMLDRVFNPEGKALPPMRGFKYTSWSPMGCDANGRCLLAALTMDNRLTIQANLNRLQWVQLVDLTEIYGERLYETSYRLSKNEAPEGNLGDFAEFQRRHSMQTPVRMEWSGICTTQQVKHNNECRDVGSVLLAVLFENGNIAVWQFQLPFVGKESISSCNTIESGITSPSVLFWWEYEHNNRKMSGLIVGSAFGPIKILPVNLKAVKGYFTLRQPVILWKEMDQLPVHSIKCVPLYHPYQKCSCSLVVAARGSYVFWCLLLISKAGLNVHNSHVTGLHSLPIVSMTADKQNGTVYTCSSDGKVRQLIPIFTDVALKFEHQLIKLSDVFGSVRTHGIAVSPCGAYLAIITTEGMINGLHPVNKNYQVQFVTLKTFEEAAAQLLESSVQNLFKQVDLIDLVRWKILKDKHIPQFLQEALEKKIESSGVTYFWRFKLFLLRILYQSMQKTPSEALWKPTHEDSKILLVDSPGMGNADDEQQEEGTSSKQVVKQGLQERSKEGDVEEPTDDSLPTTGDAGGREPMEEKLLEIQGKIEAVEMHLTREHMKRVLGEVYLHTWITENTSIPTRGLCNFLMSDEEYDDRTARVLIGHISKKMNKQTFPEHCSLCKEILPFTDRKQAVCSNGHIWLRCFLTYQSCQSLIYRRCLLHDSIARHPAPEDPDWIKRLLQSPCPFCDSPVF
UniProt P78347: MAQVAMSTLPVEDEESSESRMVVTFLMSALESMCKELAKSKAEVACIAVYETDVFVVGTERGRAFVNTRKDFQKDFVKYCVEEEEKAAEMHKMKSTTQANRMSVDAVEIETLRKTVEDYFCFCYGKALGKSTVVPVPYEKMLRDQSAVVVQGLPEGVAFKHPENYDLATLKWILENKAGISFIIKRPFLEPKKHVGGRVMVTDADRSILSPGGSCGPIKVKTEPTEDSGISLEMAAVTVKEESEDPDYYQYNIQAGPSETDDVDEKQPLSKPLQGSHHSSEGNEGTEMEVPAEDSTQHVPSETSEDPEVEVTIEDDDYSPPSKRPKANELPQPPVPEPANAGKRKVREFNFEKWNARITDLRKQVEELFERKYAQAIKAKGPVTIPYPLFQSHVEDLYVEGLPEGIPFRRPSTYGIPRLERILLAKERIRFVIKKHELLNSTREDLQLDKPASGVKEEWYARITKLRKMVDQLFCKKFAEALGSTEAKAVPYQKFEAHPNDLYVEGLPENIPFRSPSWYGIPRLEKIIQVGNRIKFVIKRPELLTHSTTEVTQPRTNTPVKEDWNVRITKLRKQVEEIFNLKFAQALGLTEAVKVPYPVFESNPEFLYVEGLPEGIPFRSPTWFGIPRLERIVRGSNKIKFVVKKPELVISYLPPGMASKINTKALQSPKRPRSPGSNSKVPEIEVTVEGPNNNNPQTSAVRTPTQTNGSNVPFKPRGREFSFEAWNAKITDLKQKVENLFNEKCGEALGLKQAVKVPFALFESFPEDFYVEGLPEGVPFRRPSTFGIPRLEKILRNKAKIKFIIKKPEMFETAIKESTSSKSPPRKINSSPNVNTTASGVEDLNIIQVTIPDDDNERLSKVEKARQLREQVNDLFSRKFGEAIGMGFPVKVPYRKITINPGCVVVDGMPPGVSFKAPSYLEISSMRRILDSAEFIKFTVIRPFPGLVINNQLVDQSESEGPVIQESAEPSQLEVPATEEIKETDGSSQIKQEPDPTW
UniProt P09488: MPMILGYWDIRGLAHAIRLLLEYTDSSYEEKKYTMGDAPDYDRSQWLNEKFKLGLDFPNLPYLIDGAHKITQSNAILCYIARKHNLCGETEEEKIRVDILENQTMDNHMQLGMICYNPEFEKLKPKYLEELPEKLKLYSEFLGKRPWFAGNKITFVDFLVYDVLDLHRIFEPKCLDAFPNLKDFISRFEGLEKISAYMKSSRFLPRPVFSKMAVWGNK
UniProt P13807: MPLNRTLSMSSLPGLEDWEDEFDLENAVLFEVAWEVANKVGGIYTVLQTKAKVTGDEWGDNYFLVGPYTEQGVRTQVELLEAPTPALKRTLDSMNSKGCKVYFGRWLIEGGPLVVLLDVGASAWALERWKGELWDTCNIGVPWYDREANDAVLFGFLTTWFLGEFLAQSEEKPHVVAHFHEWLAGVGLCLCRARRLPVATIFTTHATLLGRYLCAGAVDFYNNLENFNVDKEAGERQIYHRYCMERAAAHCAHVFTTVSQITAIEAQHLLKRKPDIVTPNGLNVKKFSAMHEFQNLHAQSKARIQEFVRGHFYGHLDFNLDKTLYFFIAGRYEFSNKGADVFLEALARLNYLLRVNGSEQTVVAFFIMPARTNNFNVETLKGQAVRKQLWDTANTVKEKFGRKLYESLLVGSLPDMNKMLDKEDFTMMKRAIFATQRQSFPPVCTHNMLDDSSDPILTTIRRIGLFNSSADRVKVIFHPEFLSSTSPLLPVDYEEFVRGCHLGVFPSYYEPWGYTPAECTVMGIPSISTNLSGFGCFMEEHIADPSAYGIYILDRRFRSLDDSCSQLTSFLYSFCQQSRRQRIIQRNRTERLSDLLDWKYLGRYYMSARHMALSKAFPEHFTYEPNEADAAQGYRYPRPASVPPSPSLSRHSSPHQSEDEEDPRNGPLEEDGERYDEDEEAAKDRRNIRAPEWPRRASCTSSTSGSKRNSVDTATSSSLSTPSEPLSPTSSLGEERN
UniProt P28799: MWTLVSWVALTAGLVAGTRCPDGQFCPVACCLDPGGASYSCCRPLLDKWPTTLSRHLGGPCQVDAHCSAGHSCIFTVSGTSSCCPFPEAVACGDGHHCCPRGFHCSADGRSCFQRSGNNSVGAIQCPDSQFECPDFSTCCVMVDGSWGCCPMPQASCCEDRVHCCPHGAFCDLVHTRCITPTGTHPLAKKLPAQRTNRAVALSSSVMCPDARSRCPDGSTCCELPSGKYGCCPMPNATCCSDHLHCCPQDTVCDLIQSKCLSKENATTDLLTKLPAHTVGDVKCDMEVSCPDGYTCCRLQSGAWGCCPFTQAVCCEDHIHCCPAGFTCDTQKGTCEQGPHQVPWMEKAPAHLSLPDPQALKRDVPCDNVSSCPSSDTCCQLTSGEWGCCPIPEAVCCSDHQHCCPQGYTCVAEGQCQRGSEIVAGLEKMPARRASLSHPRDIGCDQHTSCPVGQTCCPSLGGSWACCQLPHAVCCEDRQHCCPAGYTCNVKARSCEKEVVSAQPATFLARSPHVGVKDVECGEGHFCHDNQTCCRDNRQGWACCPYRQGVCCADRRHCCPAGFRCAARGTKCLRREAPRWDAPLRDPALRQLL

Compound: Cc1cc(ccc1-c1ccccc1)C(=O)N1CCCN(CC1)C(=O)CCl [compound 10]
Experiment: probe-labelled cysteine peptide fold change vs DMSO (competition) (log2 fold change); higher = less target engagement (more negative = stronger competition)
Conditions: THP-1, incubation time: 4 h
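Note: competitive profiling in live THP-1 cells: cysteine peptides tagged with an iodoacetamide desthiobiotin (IA-DTB) probe, intensity after compound treatment relative to DMSO-treated cells.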

Row | Target | probe-labelled cysteine peptide fold change (10 µM) | probe-labelled cysteine peptide fold change (50 µM)
1 | GPX1_P07203_78_GLVVLGFPCNQFGHQENAKNEEILNSLK (UniProt P07203) | -0.208 | -1.3
2 | GSTM3_P21266_39_YTCGEAPDYDR (UniProt P21266) | -0.0298 | 0.0205
3 | GTF3C1_Q12789_1336_VCLAEVYQDK (UniProt Q12789) | -0.00209 | 0.174
4 | GTF3C1_Q12789_1091_CAMLEYTTGSR (UniProt Q12789) | -0.183 | -0.0281
5 | GSR_P00390_467_MVCANK (UniProt P00390) | 0.158 | 0.355
6 | H6PD_O95479_663_LCAEEDQGAQIYAR (UniProt O95479) | -0.189 | 0.0594
7 | GTF3C1_Q12789_1783_TFADCIQALLEQHQVLEVGGNTAR (UniProt Q12789) | -0.0212 | 0.0192
8 | GRB10_Q13322_363_QYNAPTDHGLCIKPNK (UniProt Q13322) | -0.0848 | -0.163
9 | HACL1_Q9UJ83_261_GVVPDNHPYCVGAAR (UniProt Q9UJ83) | -0.109 | 0.122
10 | GTF3C4_Q9UKN8_441_QNGTVYTCSSDGK (UniProt Q9UKN8) | 0.106 | 0.0678
11 | GTF2I_P78347_475_MVDQLFCK (UniProt P78347) | -0.213 | 0.51
12 | GTSE1_Q9NYZ3_478_AQRPQSCTSVGR (UniProt Q9NYZ3) | 0.154 | 0.0725
13 | GTF3C1_Q12789_317+320_LQEIHPECGPCK (UniProt Q12789) | -0.219 | -0.678
14 | GRAMD1A_Q96CP6_576_AHGDGPQHPDPDPCAR (UniProt Q96CP6) | -0.24 | -0.304
15 | GTF3C4_Q9UKN8_376_CVPLYHPYQK (UniProt Q9UKN8) | 0.0788 | 0.144
16 | GPX1_P07203_156_LITWSPVCR (UniProt P07203) | 0.0327 | -0.0674
17 | H2AFY_O75367_276_FVIHCNSPVWGADK (UniProt O75367) | 0.0554 | 0.233
18 | GSS_P48637_294_CPDIATQLAGTK (UniProt P48637) | -0.127 | 0.123

Row | Target | probe-labelled cysteine peptide fold change (10 µM) | probe-labelled cysteine peptide fold change (50 µM)
19 | GSTM1_P09488_115_IRVDILENQTMDNHMQLGMICYNPEFEK (UniProt P09488) | 0.127 | -0.0126
20 | GTPBP1_O00178_360_MCPIFQISNVTGENLDLLK (UniProt O00178) | 0.165 | 0.0838
21 | GYS1_P13807_564_SLDDSCSQLTSFLYSFCQQSR (UniProt P13807) | -0.199 | -0.242
22 | GTF2I_P78347_475_KMVDQLFCK (UniProt P78347) | -0.376 | -0.337
23 | GYS1_P13807_564+575_SLDDSCSQLTSFLYSFCQQSR (UniProt P13807) | -0.166 | -0.271
24 | GSTM3_P21266_208_IAAYLQSDQFCK (UniProt P21266) | -0.461 | -0.326
25 | GSN_P06396_215_ATEVPVSWESFNNGDCFILDLGNNIHQWCGSNSNR (UniProt P06396) | -0.128 | -0.225
26 | GZF1_Q9H116_282_NEGCQAGAELEELSK (UniProt Q9H116) | -0.0689 | 0.0268
27 | GTF3C1_Q12789_42_VPPFPLPLEPCTQEFLWR (UniProt Q12789) | 0.155 | 0.236
28 | GRN_P28799_533_DVECGEGHFCHDNQTCCR (UniProt P28799) | -0.112 | -0.601
29 | GSTM1_P09488_174_CLDAFPNLK (UniProt P09488) | 0.0348 | 0.0737
30 | GRIPAP1_Q4V328_581_DQLEQAQEERDCHLK (UniProt Q4V328) | 0.0626 | -0.17
31 | GRPEL2_Q8TAA5_182_LTPIGDKYDPHEHELICHVPAGVGVQPGTVALVR (UniProt Q8TAA5) | -0.125 | -0.298
32 | HBS1L_Q9Y450_469_GLCLLEQIDSFKPPQR (UniProt Q9Y450) | -0.114 | 0.00703
33 | HAT1_O14929_120_QIIPPGFCTNTNDFLSLLEK (UniProt O14929) | 0.136 | 0.303
34 | GTF3C2_Q8WUA4_828_MQEGEGHSQLCLDR (UniProt Q8WUA4) | -0.094 | -0.0629
35 | GSTZ1_O43708_205_LLVLEAFQVSHPCR (UniProt O43708) | 0.0805 | 0.0886
